Measured values from ChEMBL document CHEMBL1134322, “A novel approach for the development of selective Cdk4 inhibitors: library design based on locations of Cdk4 specific amino acid residues” (J Med Chem, 2001).

Amino acid sequences for entries named in this document (tags omitted).
UniProt P06493, whole entry: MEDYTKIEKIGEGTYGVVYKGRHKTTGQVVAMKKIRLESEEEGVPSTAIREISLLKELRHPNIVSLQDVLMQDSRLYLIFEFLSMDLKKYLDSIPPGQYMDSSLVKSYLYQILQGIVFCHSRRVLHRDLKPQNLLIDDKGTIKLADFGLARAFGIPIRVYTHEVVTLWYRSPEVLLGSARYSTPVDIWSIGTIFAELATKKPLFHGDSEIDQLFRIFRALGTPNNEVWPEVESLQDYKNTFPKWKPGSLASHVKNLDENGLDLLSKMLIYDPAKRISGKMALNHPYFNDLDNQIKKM

Target: Cyclin-dependent kinase 1/cyclin B (Homo sapiens, UniProt P06493)
Test: Inhibition of cyclin B-CDK1 ser/thr kinase.
Format: protein-complex assay

O=C(Nc1ccccn1)Nc1cccc2c1[C@H]1CCCN1C2=O
IC50: 120 nM
